Data published in the supplement of paper PMC3334620.
In all, about 33,000 sequences were measured (“E-score (-0.5 to 0.5)”: median about -0.0014, highest 2% from about 0.25 on). The list shows a part of the results.

These sequences were tested against T1, Cad1 (UniProt P24813) (assay: PBM E-score (8-mer binding enrichment) (E-score (-0.5 to 0.5)); higher = stronger / more preferred TF binding). Details: protein concentration: 100 nM; construct: GST-full length.
T1 sequence: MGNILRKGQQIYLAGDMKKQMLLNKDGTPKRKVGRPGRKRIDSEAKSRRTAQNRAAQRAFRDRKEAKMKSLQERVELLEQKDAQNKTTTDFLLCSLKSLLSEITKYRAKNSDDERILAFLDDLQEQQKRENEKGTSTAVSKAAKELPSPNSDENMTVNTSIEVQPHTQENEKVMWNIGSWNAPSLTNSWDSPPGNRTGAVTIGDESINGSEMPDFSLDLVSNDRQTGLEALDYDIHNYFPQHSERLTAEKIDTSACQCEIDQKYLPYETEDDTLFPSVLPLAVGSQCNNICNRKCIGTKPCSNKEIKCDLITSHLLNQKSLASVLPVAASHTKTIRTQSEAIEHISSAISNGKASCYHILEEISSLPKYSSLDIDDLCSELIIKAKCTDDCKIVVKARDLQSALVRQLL
Procedure: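 Universal 'all 10-mer' protein binding microarrays (Agilent AMADID 015681) probed with GST-tagged S. cerevisiae TFs (full-length or DBD) made by in vitro transcription/translation (PURExpress), about 100-200 nM. Bound TF was detected with fluorescent anti-GST. Each ungapped 8-mer (which stands for itself and its reverse complement) is scored by the PBM enrichment score (E-score), a modified Wilcoxon-Mann-Whitney statistic from -0.5 to +0.5, computed with the Universal PBM Analysis Suite. Scale: above 0.35 generally sequence-specific binding.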

Sequence	PBM E-score
AGGTGTGA	-0.126
CGACGCAA	0.118
TCGCCGCA	0.0193
AAGAGGGA	-0.243
ATAGCAAC	0.0425
AGGCCGAT	0.139
AACTTCCA	-0.0493
AATCCATT	0.188
AGCGCTGG	0.191
CAACTAGG	0.079
ATACATCC	0.0953
CAATTTCC	0.15
GATGCAGC	0.0592
CTACCTGA	-0.0406
CACCAAAG	-0.00946
CCGTCTTC	-0.0473
AATTGCCT	0.149
ACGGAGAA	0.0805
AGACCCAT	-0.108
AAGCTAAC	0.0817
ATATTGAG	0.0195
CTCCCTGA	-0.247
TATGTCCA	-0.0512
GCAGCAAC	0.109
CACTTTGC	-0.0211

Sequence	PBM E-score
CGGGAGCA	0.0572
GGTGCAGA	-0.217
ATGAACCC	0.0129
AGCCAATA	-0.0761
CACTCTGG	-0.115
CGAGGTGA	0.221
CCATGGGG	-0.0233
CACTCCCC	-0.162
GGAATCTA	0.0275
AAATAGTC	-0.0981
GAGAAGGC	-0.224
CGTGAGTA	0.175
AAGCTCGC	0.224
AACTTGGG	-0.0849
GACCGCCA	-0.111
CGTACTTA	0.179
CACCACCC	-0.132
ATGATCTC	-0.0469
CAACCGCA	0.066
ATCTCTGC	0.0525
AACGACCG	-0.116
AGATAGCG	-0.0372
AGTAAATA	0.12
ATATTTTC	0.207
AAGGCCTC	-0.171

Sequence	PBM E-score
ACGCTGTC	-0.187
CTGCACAC	-0.0494
ACTCAAGA	-0.193
CTGGGCCC	-0.23
CTACGAGC	-0.131
CCTAGTCG	-0.118
GTTTGCAA	0.0869
AGGTTGTC	-0.0912
CGACGCTC	0.129
AATGCCCC	-0.238
ACACTAGT	0.115
CGATTCGA	0.213
CCGCGCAA	0.0795
AACAATGT	0.101
ATTTACTG	0.0117
ATGGCTTG	-0.0675
AACCTGTG	-0.0443
AATTGGGA	0.056
TAACGCTA	-0.0198
CCCGTACA	-0.313
ACGCTTCT	-0.202
GTACCAGA	-0.0155
CAAATATC	0.261
GATAGCTA	0.0144
CGACTGAC	-0.175

Sequence	PBM E-score
CACGCCCC	-0.201
ATACGCAG	-0.0837
ATCACTCC	-0.127
ATCTCGTG	-0.0129
ATTCCCCC	-0.219
TGGTTTAA	0.0972
CAATCTTC	0.035
GCCAACAC	0.1
GAGCTGGA	-0.0498
GTGCAGTA	0.00821
AAGTCGAG	0.0276
CTGGCGAA	0.0604
CCACAGGG	-0.243
AGTTGAGC	0.0736
AGAAGGTA	0.103
CGTGGTCC	-0.117
CCTATGAC	-0.0855
CGATGTCC	0.0702
AAAATGCT	0.181
ATCAGTGA	0.0672
GGAGTTAA	-0.0416
GGAAACTA	-0.0839
ATTTCGCG	0.154
AACTCTGC	-0.134
AAGTTGGG	-0.0322

Sequence	PBM E-score
TACCTCTA	-0.053
CTCCGAGA	0.0924
CAGGGAGA	-0.178
ACGACGGA	0.104
TCATGCGA	0.0455
CGAGGCAG	0.0833
ATTTCAAC	0.138
ATCTGAGC	0.0656
CTGAGATC	-0.13
AGAAGGAC	-0.0683
GAAAACTC	0.0662
ATTCGTTC	0.09
GAAAATAA	0.201
CATTGCTC	0.0163
ACCAGGTG	-0.199
GAGACCCA	-0.00488
AACTAAGC	0.187
GTTCATTA	-0.0226
GTTTAGAA	-0.0176
CAGTCTTA	-0.0842
GGCCCGCC	-0.23
ATGAGACG	-0.0991
TGAGCCCA	-0.0193
ACAGAGGA	-0.109
ACGGATCG	0.0381

Part of the list above, reformatted:

| Sequence | PBM E-score |
| --- | --- |
| CGACTGAC | -0.175 |
| CACGCCCC | -0.201 |
| ATCACTCC | -0.127 |
| ATCTCGTG | -0.0129 |
| ATTCCCCC | -0.219 |
| TGGTTTAA | 0.0972 |
| CAATCTTC | 0.035 |
| GCCAACAC | 0.1 |
| GAGCTGGA | -0.0498 |
| GTGCAGTA | 0.00821 |
| AAGTCGAG | 0.0276 |
| CTGGCGAA | 0.0604 |
| CCACAGGG | -0.243 |
| AGTTGAGC | 0.0736 |
| AGAAGGTA | 0.103 |
| CGTGGTCC | -0.117 |
| CCTATGAC | -0.0855 |
| CGATGTCC | 0.0702 |
| AAAATGCT | 0.181 |
| ATCAGTGA | 0.0672 |
| GGAGTTAA | -0.0416 |
| ATTTCGCG | 0.154 |
| AACTCTGC | -0.134 |
| AAGTTGGG | -0.0322 |
| TACCTCTA | -0.053 |
| CTCCGAGA | 0.0924 |
| CAGGGAGA | -0.178 |
| ACGACGGA | 0.104 |
| TCATGCGA | 0.0455 |
| CGAGGCAG | 0.0833 |
| ATTTCAAC | 0.138 |
| ATCTGAGC | 0.0656 |
| CTGAGATC | -0.13 |
| AGAAGGAC | -0.0683 |
| GAAAACTC | 0.0662 |
| ATTCGTTC | 0.09 |
| GAAAATAA | 0.201 |
| CATTGCTC | 0.0163 |
| ACCAGGTG | -0.199 |
| GAGACCCA | -0.00488 |
| AACTAAGC | 0.187 |
| GTTCATTA | -0.0226 |
| GTTTAGAA | -0.0176 |
| CAGTCTTA | -0.0842 |
| GGCCCGCC | -0.23 |
| ATGAGACG | -0.0991 |
| TGAGCCCA | -0.0193 |
| ACAGAGGA | -0.109 |

(further entries)

Sequence	PBM E-score
AGACCCCA	-0.12
ACCGGAGG	-0.114
GATCAGCA	0.141
TAAATCAA	0.171
AGACCCGC	0.0282
AGGATCGG	-0.232
AATAAAGC	0.104
GAAATCAA	-0.0157
CAGTTCGC	0.0307
CGATAGAA	0.0369
CTTGGCGC	0.0227
CATATTGG	0.106
AGGTTCTA	-0.18
ATCCACGA	0.0701
CAAGCAGC	-0.109
GAGGGGGC	-0.431
ATACGCCC	-0.104
CATTACTA	0.25
CACTGTAA	0.00669
CTGACACA	0.156
ATGTTCAG	-0.0415
ATAAGAAG	0.0392
ACAAGAGT	-0.128
GCTCCGGA	0.0259
CGCGTCTA	0.186

Sequence	PBM E-score
AGCAACAG	0.0501
ACGTATTG	0.00371
GCACGGAC	0.164
TGCTTACA	0.235
ACGGTCTA	-0.114
AACCCAGC	-0.0145
GCCTATAA	-0.13
GCGGACAC	0.159
CAACCCCG	-0.255
CGAACTCC	0.0429
GCCTCAGA	-0.0698
AATTGTCT	0.0333
TACCGATA	0.102
AGGGTTGG	0.0919
CAATTTTA	0.27
GCTCCGTA	-0.034
AGCTCCCG	-0.329
CATTCAAA	0.212
ATATATAC	0.317
GTAGGAAA	-0.0132
AACCAGGG	-0.176
TATATCCA	0.0658
